In PubChem BioAssay AID1794845 (National Center for Advancing Translational Sciences (NCATS), 2023):
Out of some 6,900 compounds screened, fewer than 10 were called active. Calls come from the whole dose curve; as a rule, active = well fitted curve in the direction sought with a large enough effect; inconclusive = small, poorly fitted or top-dose-only effect, or another doubt; inactive = no such curve, though single readings can be large or run the other way. Some of the results follow.

By UniProt entry, the sequences of proteins in these tests, tags left out. Where a name states a change or a piece, a line headed by the entry shows the natural chain unless it says otherwise.
UniProt C7C422: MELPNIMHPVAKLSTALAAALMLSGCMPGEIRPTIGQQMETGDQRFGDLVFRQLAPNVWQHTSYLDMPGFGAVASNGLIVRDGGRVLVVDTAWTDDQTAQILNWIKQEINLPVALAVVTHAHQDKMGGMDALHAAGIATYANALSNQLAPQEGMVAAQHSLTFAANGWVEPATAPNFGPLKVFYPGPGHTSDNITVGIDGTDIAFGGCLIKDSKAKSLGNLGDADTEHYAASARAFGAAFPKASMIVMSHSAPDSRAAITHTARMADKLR

Target: Metallo-beta-lactamase type 2 (Klebsiella pneumoniae) (UniProt C7C422)
Test: qHTS to identify inhibitors of the New Delhi Metallo-beta-lactamase (NDM): primary screen against the NCATS Gemini Collection; note: % of control where 0% means no effect
Conditions: NDM-1 enzyme, meropenem hydrolysis, absorbance 300 nm; at 38.4 µM (top of the series) unless noted
How it was run: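 Meropenem hydrolysis (50 uM final) by 2 nM NDM-1 read as 300 nm absorbance after 30 min, following >30 min compound–enzyme preincubation in HEPES pH 7.0 with 1 uM ZnSO4 and 0.01% Tween20.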

Activity % (negative = inhibition), inactive:
CN(C)CCN1CC2(CCCN(C(=O)CCCn3cnnn3)C2)CCC1=O (stereo not drawn) -2.94%
COCCn1cnc2ccc(-c3cccc(O)c3)nc2c1=O 14.4% [at 57.5 µM]
Cc1cc(CN(C)Cc2ccc(F)cc2)no1 1.41% [at 57.5 µM]
O=C(NCc1ccccc1C(F)(F)F)c1cccc2c1CCN2C(=O)C1CC1 -0.326%
COCCN1CCCC2(CCN(C(=O)CCn3cncn3)C2)C1=O (stereo not drawn) 4.91%
O=C(Nc1ccc(C(F)(F)F)cc1)N[C@@H]1C[C@H](CO)[C@@H](O)[C@H]1O 0.876% [at 57.5 µM]
Cc1cnc(CCNC(=O)C2(c3ccccc3)CC2)n1Cc1ccccc1 -2.54%
CSCC[C@@H]1NC(=O)c2cc(NC(=O)c3cc(-c4ccccn4)n[nH]3)ccc2NC1=O 7.17%
CCc1nc(NC(CCn2cncn2)c2ccccc2)c2cnn(C)c2n1 (stereo not drawn) 8.7%
O=C1NC2(CCN(Cc3ccccc3)C2)COc2ccccc21 (stereo not drawn) 18.5% [at 57.5 µM]
COc1ccc(-n2c(CN)n[nH]c2=O)cc1OC 63.8%
CCCn1c(C)cnc1CC1CCN(S(=O)(=O)CCC)CC1 4.77%
CC(C)Cc1cc(C(=O)N2C[C@H](C3CC3)[C@@H](N)C2)n(C)n1 4.15%
Cc1nnnn1-c1cccc(C(=O)N2CCCC(O)(CN(C)C)CC2)c1 (stereo not drawn) -11.5%
O=C(NCc1ccncc1)C1c2ccccc2C(=O)N(C2CCCC2)C12CCCCC2 (stereo not drawn) 35.4%
Cn1c(CNC(=O)C2(C)CCCCC(=O)N2)nc2ccccc21 (stereo not drawn) 9.51%
c1ccc(Cc2nnc([C@H]3CCN(CC4CCCCC4)C3)o2)cc1 -0.624% [at 57.5 µM]
CCn1nccc1C(=O)N1C[C@@H]2CCCN3CCC[C@@H]([C@H]23)[C@H]1CCCC(=O)NC 11.5%
Cc1cccc([S+](=O)([O-])N2CCC3(CC2)OCCN(CC2CC2)C3=O)c1 3.19% [at 57.5 µM]
CCCNC(=O)N[C@@H]1CCC[C@@H](C(=O)N(CC)CC)CC(=O)N(C)C1 7.22% [at 57.5 µM]
Cc1ccc(S(N)(=O)=O)cc1C(=O)N1CCCn2nc(C(C)O)cc2C1 (stereo not drawn) 16.2%
CCNC(=O)N1CCOc2ccc(CN3CCOCC3)cc2C1 -1.24%
O=C(CCc1nc2ccccc2[nH]1)N1CCC(c2nc(CCOCC3CC3)no2)C1 (stereo not drawn) -5.96%
COc1ccc(C(=O)N2CCCC(n3cc(-c4nc(C5CC5)no4)nn3)C2)cn1 (stereo not drawn) -1.63%
O=C(CC1CCN(C(=O)c2cc(F)ccc2F)C1)NC1CC1 (stereo not drawn) -1.08%
O=C(O)C1(c2ccccc2)CCN(S(=O)(=O)c2cccs2)CC1 16.8%
Cc1nn(C)c(C)c1S(=O)(=O)N1CCC(c2noc(C3CC3)n2)C1 (stereo not drawn) 0.821%
C[C@H]1[C@@H]2[C@H]3OC(=O)[C@@H](C)[C@@H]3CC[C@@]2(C)CC[C@@H]1NC(=O)Cc1ccccc1 7.32% [at 57.5 µM]
COCc1nnc(C2CC3(CCN(C(=O)c4cccc(C)c4)CC3)CN2C)o1 (stereo not drawn) -3.02%
COc1ccc(N2CCOC3CCN(Cc4ccc(C(C)C)cc4)CC3C2=O)cc1 (stereo not drawn) -1.15% [at 57.5 µM]
O=c1n(CC2CC2)c2cccnc2n1[C@H]1CCCN(S(=O)(=O)c2cccnc2)C1 8.6%
Cc1nc(N2CCC(NCCc3n[nH]c(=O)[nH]3)CC2)c2ccsc2n1 -0.17%
CS(=O)(=O)N[C@H]1C[C@H]2C(=O)NC[C@@H](CCC(=O)N3CCCCC3)N2C1 22.8% [at 57.5 µM]
O=C(c1ccncc1)N1CC(c2nc(CCc3ccccc3)no2)C1 59.2%
Cc1cccc(-c2noc(CCC(=O)N[C@H]3CC[C@H]3NC3CCCC3)n2)c1 9.99%
Cc1nc([C@@H]2CN(C(=O)c3cccc(C#N)c3)C[C@H]2C(N)=O)n[nH]1 1.2%
Cc1ccc(C2Cn3nnc(C(=O)N4CCC(C(=O)NCCc5ccccc5)CC4)c3CO2)cc1 (stereo not drawn) 44.3%
O=C(c1ccc(-c2cncnc2)cc1)N1CCC(N[S+](=O)([O-])c2cccc(C(F)(F)F)c2)CC1 -0.677%
COc1ccc(CNC[C@H]2O[C@H](Cc3cc(COc4ccccc4)on3)CC[C@@H]2O)cc1 -9.57%
Cc1ccc(CN2CCC(C(=O)N3CCCCCCNC(=O)CC3)CC2)s1 6.72%
Cc1nnc([C@H]2CCN(Cc3cnc4ccccc4c3)C2)o1 7.31% [at 57.5 µM]
Cc1ccc(NC(=O)N2CCC(CCNC(=O)CC3CCCC3)CC2)cc1F 3.54%
COCCC1(NC(=O)c2ccoc2)CCN(CC2CC2)CC1 -0.904%
O=C(NC1CCCCC1)N1CCC(Cc2nc(-c3ccccc3)n[nH]2)C1 (stereo not drawn) -0.103%
N#Cc1cccc(-c2cn3c(n2)N(C(=O)c2ccsc2)CCC3)c1 12.4%
O=[S+]1([O-])N(Cc2ccccc2)C[C@@H](O)[C@]12CCN(Cc1ccc(C(F)(F)F)nc1)C2 -1.41%
Cn1nccc1C(=O)N1CCC(N2CC(OCC3CC3)C23CCOCC3)CC1 (stereo not drawn) -1.15%
CC1=C[C@@H](CNC(=O)CC(C)(C)C)[C@H](C(C)C)C[C@H]1CC(=O)NC1CCCC1 -1.26% [at 57.5 µM]
O=C1CC(NS(=O)(=O)N2CCCC2)CN1Cc1ccc(F)cc1 (stereo not drawn) 0.157%
Cc1ccc(-c2nnc(C3CN(C(=O)c4ccnn4C)CC34CCOCC4)o2)cc1 (stereo not drawn) 1.72%
COc1ccccc1-c1cc(C(=O)N2CCOCC2)nc2c1cnn2C -3.82%
C=CCOc1cccc(-c2nnc(CCC(=O)NCc3ccccc3)c(=O)[nH]2)c1 16.7%
COc1ccc(CN2C[C@@H](CO)[C@H](c3ccncc3)C2)c(OC)c1 3.35%
COc1ccc(-n2ncc3c2CC(C)(C)CC3NC(=O)c2cc(C)[nH]n2)cc1 (stereo not drawn) -0.397%
O=C(CC(c1ccccc1)c1ccccc1F)N1CCN(c2ccncc2)CC1 (stereo not drawn) 9.16%
CN1CCN(C(CN)C2CCCCC2)CC1 (stereo not drawn) 0.469% [at 77.1 µM]
CC1(C)C(=O)N(CC2CCOCC2)[C@H]2CN(Cc3cccs3)C[C@@H]2[S+]1(=O)[O-] -0.26% [at 57.5 µM]
CNc1nc(C(=O)N2CCC(c3nccn3Cc3ccncc3)CC2)cs1 4.7%
CN(C)CCN(C)[C@@H]1[C@H](O)[C@H](CO)O[C@@H]1CN(Cc1ccc(Cl)cc1)Cc1cccc(Cl)c1 3.27%
COCCNC(=O)C(NC(=O)c1ccccc1)C1CCN(C(=O)C2CC2)CC1 (stereo not drawn) 0.454%
C[C@@H]1C(=O)O[C@H]2[C@H]1CC[C@@]1(C)Cc3sc(NC(=O)COc4ccccc4)nc3[C@@H](C)[C@H]21 13.6%
CC(C)(C)OC(=O)NCCCC(=O)NCc1ccnc2[nH]ccc12 7.31%
Cc1occc1C(=O)N1CCCC(O)(CNC(=O)N2CCOCC2)CC1 (stereo not drawn) -3.21%
O=C(Cc1ccccn1)N1CCC(C(=O)N2CCC(c3nc4ncccc4[nH]3)CC2)CC1 3.96%
COc1ccc(OC2CN(Cc3cccnc3)C2)cc1 -12.6% [at 57.5 µM]
CC(=O)Nc1ccc(OCC(=O)N2CCC(C)CC2)nc1 -0.0841%
COCCN(C)C[C@@H]1CN(C(=O)c2nc(-c3ccccc3)[nH]c2C)C[C@@H]1CO 16%
O=C(NCc1ccc2c(c1)OCO2)c1csc(N2CCN(c3ccc(F)cc3)CC2)n1 2.96%
CC(=O)N1CCn2c(nnc2-c2ccccc2)C1 8.68% [at 57.5 µM]
CCN1C(=O)CCc2cc(NC(=O)CC(C)C)ccc21 -2.76%
CC(C)Cn1c(=O)n(CC(C)N2CCCC2)c2cc(C(=O)O)cnc21 (stereo not drawn) 4.04%
COc1ccc(C(=O)N[C@@H]2CCOC[C@H]2Oc2ccccn2)c(F)c1F -1.2%
O=C1NC(=NC2CCCCC2)C2(CCCN([S+](=O)([O-])c3cccc(C(F)(F)F)c3)C2)N1c1cc(F)cc(F)c1 (stereo not drawn) -8.36%
CC1=NS(=O)(=O)N(C)C=C1C(=O)OCc1nc(C)no1 31.4%
NS(=O)(=O)c1ccc(C(=O)N[C@H](c2cccs2)C2CC(O)C2)cc1 (stereo partly drawn) 8.84%
CC(=O)N1CCOc2ccc(CCC(=O)N3CCN(C4CCCCC4)CC3)cc2C1 -7.13%
C=CCNc1nc(C)nc2c1CCN(C(=O)Cc1nnc(N)s1)CC2 -1.18%
CCCn1c(C)c(CC(=O)NCC2COCCO2)c2c1CC(C)(C)CC2=O (stereo not drawn) 9.65%
O=[S+]([O-])(c1cccs1)N1CCCC2(CC(c3ccccc3)=NO2)C1 (stereo not drawn) -4.24%
CCN1c2cc(C(=O)NCc3cccc(OC)c3)ccc2C(=O)N2CCCCCC21 (stereo not drawn) -1.41%
Cc1cc(S(=O)(=O)N[C@@H]2CCOC[C@H]2Oc2ccccn2)c(C)s1 -0.546%
COC[C@H]1C[C@@H](NC(=O)Nc2cccnc2)[C@H](O)[C@@H]1O 37.7% [at 77.1 µM]
Cc1ccc(CCNC(=O)c2cc3c(=O)[nH]c(C)cn3n2)cc1 -2.85%

Sorted by formula weight (descending): some entries from above.
Activity % (negative = inhibition), inactive:
CN(C)CCN(C)[C@@H]1[C@H](O)[C@H](CO)O[C@@H]1CN(Cc1ccc(Cl)cc1)Cc1cccc(Cl)c1 3.27%
Cc1ccc(C2Cn3nnc(C(=O)N4CCC(C(=O)NCCc5ccccc5)CC4)c3CO2)cc1 (stereo not drawn) 44.3%
COc1ccc(CNC[C@H]2O[C@H](Cc3cc(COc4ccccc4)on3)CC[C@@H]2O)cc1 -9.57%
O=C(CCc1nc2ccccc2[nH]1)N1CCC(c2nc(CCOCC3CC3)no2)C1 (stereo not drawn) -5.96%
CCN1c2cc(C(=O)NCc3cccc(OC)c3)ccc2C(=O)N2CCCCCC21 (stereo not drawn) -1.41%
Cc1ccc(CN2CCC(C(=O)N3CCCCCCNC(=O)CC3)CC2)s1 6.72%
Cc1ccc(NC(=O)N2CCC(CCNC(=O)CC3CCCC3)CC2)cc1F 3.54%
O=C(NCc1ccccc1C(F)(F)F)c1cccc2c1CCN2C(=O)C1CC1 -0.326%
Cc1ccc(S(N)(=O)=O)cc1C(=O)N1CCCn2nc(C(C)O)cc2C1 (stereo not drawn) 16.2%
CN(C)CCN1CC2(CCCN(C(=O)CCCn3cnnn3)C2)CCC1=O (stereo not drawn) -2.94%
CCCn1c(C)c(CC(=O)NCC2COCCO2)c2c1CC(C)(C)CC2=O (stereo not drawn) 9.65%
C[C@H]1[C@@H]2[C@H]3OC(=O)[C@@H](C)[C@@H]3CC[C@@]2(C)CC[C@@H]1NC(=O)Cc1ccccc1 7.32% [at 57.5 µM]
COc1ccc(C(=O)N[C@@H]2CCOC[C@H]2Oc2ccccn2)c(F)c1F -1.2%
O=[S+]([O-])(c1cccs1)N1CCCC2(CC(c3ccccc3)=NO2)C1 (stereo not drawn) -4.24%
Cc1nn(C)c(C)c1S(=O)(=O)N1CCC(c2noc(C3CC3)n2)C1 (stereo not drawn) 0.821%
O=C1CC(NS(=O)(=O)N2CCCC2)CN1Cc1ccc(F)cc1 (stereo not drawn) 0.157%
COCCN1CCCC2(CCN(C(=O)CCn3cncn3)C2)C1=O (stereo not drawn) 4.91%
N#Cc1cccc(-c2cn3c(n2)N(C(=O)c2ccsc2)CCC3)c1 12.4%
CC(C)(C)OC(=O)NCCCC(=O)NCc1ccnc2[nH]ccc12 7.31%
COc1ccc(CN2C[C@@H](CO)[C@H](c3ccncc3)C2)c(OC)c1 3.35%
CC(C)Cc1cc(C(=O)N2C[C@H](C3CC3)[C@@H](N)C2)n(C)n1 4.15%
CC(=O)N1CCn2c(nnc2-c2ccccc2)C1 8.68% [at 57.5 µM]
Cc1cc(CN(C)Cc2ccc(F)cc2)no1 1.41% [at 57.5 µM]
